# Measured values reported in the supplement of paper PMC10338343.
# ± gives the standard deviation. The entries are a selection whose mix differs from that of the whole data set. The uncertainty is large for many entries. The list shows a part of the results.
# Assays:
# [1] = system: MILI (PIWIL2) piRISC loaded with L1MC piRNA (26 nt); experiment: pre-steady-state target cleavage rate (min^-1); higher = faster piRNA-guided slicing of the target; conditions: guide: L1MC piRNA 5'p-UAACUAAAUACUAUGCAAGCUGUAGG
# Method in brief: (§1)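 Using HEPES–potassium acetate buffer at 33 °C, 1 nM active affinity-purified piRISC with a single synthetic guide was mixed with 0.1 nM transcribed, DNA-blocked target RNA library for 0–8 or 0–960 min, with or without 500 nM GTSF1 partner protein. Uncleaved targets were sequenced and normalised to depth and to weakly complementary targets, and three trials were pooled with k3 capped at 0.0001 min^-1. A burst-and-steady-state fit gave the pre-steady-state cleavage rate.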
# [2] = system: MIWI (PIWIL1) piRISC loaded with L1MC piRNA (30 nt); experiment: as above; conditions: guide: L1MC piRNA 5'p-UAACUAAAUACUAUGCAAGCUGUAGGUCCU
# Method in brief: as §1
# [3] = system: EfPiwi piRISC loaded with L1MC piRNA (26 nt); experiment: pre-steady-state target cleavage rate (min^-1); guide: L1MC piRNA 5'p-UAACUAAAUACUAUGCAAGCUGUAGG; MIWI and MILI are mouse PIWI proteins and EfPiwi is from a freshwater sponge; tags in brackets are library labels; higher = faster piRNA-guided slicing of the target
# Method in brief: as §1
# [4] = auxiliary factor: 500 nM mouse GTSF1
# [5] = auxiliary factor: none (no GTSF1)
# [6] = auxiliary factor: 500 nM Ephydatia muelleri Gtsf1
# [7] = auxiliary factor: none (no Gtsf1)
Sequence,"pre-steady-state target cleavage rate [1, 4]","pre-steady-state target cleavage rate [1, 5]","pre-steady-state target cleavage rate [2, 4]","pre-steady-state target cleavage rate [2, 5]","pre-steady-state target cleavage rate [3, 6]","pre-steady-state target cleavage rate [3, 7]"
UCCUGGAUGAGCUUGCAUAAGUAUUUAGUUA,0.00282 ± 0.0053,0.000965 ± 0.0059,0.00151 ± 0.0077,0.000368 ± 0.01,0.00127 ± 0.0042,0.00103 ± 0.009
UCCUGCUACAGCUUGGUUAGUAUUUAGAAA,–,0.00118 ± 0.005,–,0.00117 ± 0.0052,0.00162 ± 0.0022,0.000234 ± 0.028
UCCUGGAACAGCUUGCAUAGUACUUUAGUUA,0.168 ± 0.015,0.00486 ± 0.0022,0.472 ± 0.036,0.00827 ± 0.0032,0.00922 ± 0.0033,0.00109 ± 0.012
UCCUGGAUCAGCUUGCAUACAUUUUAGUUA,0.00212 ± 0.005,0.00176 ± 0.0045,0.00149 ± 0.0079,0.00132 ± 0.0051,0.000366 ± 0.0073,0.000161 ± 0.044
UCCUGGAUGUGCUACGAUAGUAUUUAGUUA,0.0029 ± 0.0048,0.00117 ± 0.0052,0.000885 ± 0.013,0.00104 ± 0.0066,0.000582 ± 0.0084,0.000231 ± 0.033
UCCUGGAUGUCGUUGCAUAGUUUUUAGUUA,0.00524 ± 0.0046,0.00595 ± 0.0026,0.00172 ± 0.0078,0.00234 ± 0.0036,0.00143 ± 0.0037,0.000184 ± 0.05
UCCUGGAUGUCGUUGCAUAGUAUUAAGUUA,–,0.00271 ± 0.0034,–,0.00128 ± 0.0061,0.00229 ± 0.0039,0.00123 ± 0.0075
UCCUGGAACAGCUUGCUAAGUAUUUAGAAA,–,0.00108 ± 0.0048,–,0.00182 ± 0.0036,0.00076 ± 0.0046,0.000376 ± 0.015
UCCUGGAUCAGCUUGCAUACUAUUUACAAA,–,0.000905 ± 0.0057,–,0.00172 ± 0.0044,0.00243 ± 0.0026,0.000514 ± 0.012
UCCUGCUACAGCUUGCAUAGUAUUUGUUA,–,0.0016 ± 0.0035,–,0.00169 ± 0.0042,0.00505 ± 0.002,0.00127 ± 0.0069
UCCUCCUACAGCUUGCAUAGUAUUAUGUAA,–,0.000903 ± 0.005,–,0.00147 ± 0.0033,0.00434 ± 0.0026,0.000495 ± 0.011
UCCUGGAUCUGCUUCCAUAGUAUUUAGUUA,–,0.000804 ± 0.0068,–,0.000645 ± 0.0049,0.00326 ± 0.0022,0.000263 ± 0.03
UCCUGCUACAGCUUCCAUAGUAUUUAGUAA,–,0.000724 ± 0.0076,–,0.00117 ± 0.006,0.00255 ± 0.0016,0.000235 ± 0.021
UCCUGGAUCAGCUUGCAUAGUAAAAAGAAA,–,0.00088 ± 0.0065,–,0.000399 ± 0.0076,0.000761 ± 0.0051,0.000248 ± 0.031
UCCUCCUACAGCUUCCAUACUAUUUAGUUA,–,0.000686 ± 0.0071,–,0.00145 ± 0.004,0.00222 ± 0.0027,0.000273 ± 0.014
UCCUGGUACAGCUUGCAUAGUAAAUAGUAA,–,0.00187 ± 0.005,–,0.00221 ± 0.004,0.00211 ± 0.0032,0.00145 ± 0.011
UCCUCCUACAGCUACCAUAGUAUUUAGAAA,–,0.000713 ± 0.0072,–,0.000677 ± 0.0076,0.00162 ± 0.0024,0.000208 ± 0.021
UCCUGGAUGUCCUUCCAUAGUAUAUAGUUA,–,0.000278 ± 0.021,–,0.000215 ± 0.015,0.000213 ± 0.013,0.000127 ± 0.052
UCCUGGAACAGCUUGCAUAGUAAAUAGUAA,–,0.00164 ± 0.0046,–,0.00285 ± 0.0041,0.00128 ± 0.0038,0.000312 ± 0.021
UCCUCGUACAGCUUGCAUAGUAUUUUCAAA,–,0.00107 ± 0.0051,–,0.00228 ± 0.0026,0.0038 ± 0.0029,0.000357 ± 0.018
UCCUGGAUGAGCUUGCAUAGUAAAUAGAAA,–,0.000587 ± 0.012,–,0.000509 ± 0.0086,0.000801 ± 0.0068,0.000436 ± 0.015

Sequence,"pre-steady-state target cleavage rate [1, 4]","pre-steady-state target cleavage rate [1, 5]","pre-steady-state target cleavage rate [2, 4]","pre-steady-state target cleavage rate [2, 5]","pre-steady-state target cleavage rate [3, 6]","pre-steady-state target cleavage rate [3, 7]"
UCCUGGAUGAGCUUGCAUACAUUUUAGAAA,–,0.000459 ± 0.012,–,0.000876 ± 0.0077,0.000353 ± 0.011,0.000278 ± 0.035
UCCUCCUACAGCUUCGAUAGUAUUUAGAAA,–,0.000568 ± 0.0082,–,0.000305 ± 0.0086,0.00217 ± 0.0024,0.000343 ± 0.014
UCCUGCUACAGCUUGCAUACUAUUUAGAAA,–,0.001 ± 0.0071,–,0.00292 ± 0.0032,0.00298 ± 0.0021,0.000271 ± 0.027
UCCUGGUACAGCAAGCAUAGUAUUUAGAAA,–,0.0011 ± 0.0048,–,0.000664 ± 0.0072,0.00185 ± 0.0021,0.000186 ± 0.015
UCCUGGAUGUCGUUGCAUAGUAUUUAUGUUA,–,0.00205 ± 0.0055,–,0.000901 ± 0.011,0.000359 ± 0.013,0.000594 ± 0.018
UCCUGGAUGAGCUUGGAUUGUAUUUAGUUA,–,0.0017 ± 0.0036,–,0.00085 ± 0.0089,0.000345 ± 0.013,< 0.0001
UCCUGCUAGUGCUUGCAUAGUAUUUACAAA,–,0.000469 ± 0.0093,–,0.00195 ± 0.0029,0.000936 ± 0.0034,0.000131 ± 0.045
UCCUGGAUGUGCUUGCAUACAUUUUAGUAA,–,0.000412 ± 0.015,–,0.000661 ± 0.013,0.000939 ± 0.0074,< 0.0001
UCCUGGAUGAGCUUGCAUAGUAUUAUCUUA,–,0.000586 ± 0.011,–,0.00246 ± 0.0037,0.000951 ± 0.0049,0.000546 ± 0.015
UCCUGCUACAGCUUGCAUUCAAUUUAGUUA,–,0.00197 ± 0.0027,–,0.000337 ± 0.0096,0.00103 ± 0.0053,0.000246 ± 0.017
UCCUCCUACAGCUUGCAUAGUUAAUAGUAA,–,0.000731 ± 0.008,–,0.0012 ± 0.0034,0.00511 ± 0.003,0.000434 ± 0.011
UCCUGGAUGUCGAUGCAUAAGUAUUUAGUUA,–,0.000436 ± 0.011,–,0.000649 ± 0.014,0.000528 ± 0.0073,0.000511 ± 0.015
UCCUGCUACAGCAUGCAUAGUAUUUAGAAA,–,0.00131 ± 0.0061,–,0.000445 ± 0.011,0.00416 ± 0.0014,0.000135 ± 0.048
UCCUGGUACAGCUUGCAUAGAUAUUUCAAA,–,0.000809 ± 0.011,–,0.000213 ± 0.023,0.000749 ± 0.0066,0.000339 ± 0.028
UCCUGCUACAGCUUGCAUUGUAUUUUCAAA,–,0.00101 ± 0.0047,–,0.00111 ± 0.0046,0.000951 ± 0.0037,0.000152 ± 0.029
UCCUCCUACAGCUUGCAUAGUAUAUAGAAA,–,0.000857 ± 0.0077,–,0.00121 ± 0.0054,0.00329 ± 0.0015,0.000159 ± 0.032
UCCUGGAUGAGCUUGCAUAUAUUUAGUUA,–,0.00196 ± 0.0041,–,0.00211 ± 0.0035,0.00241 ± 0.0045,0.000699 ± 0.0094
UCCUGGAUGUCGAAGACAUAGUAUUUAGUUA,–,0.000548 ± 0.0065,–,0.000613 ± 0.012,0.00104 ± 0.0054,0.000274 ± 0.026
UCCUGGUUCAGCUUCCAUAGUAUUUAGUUA,–,0.00231 ± 0.0035,–,0.00188 ± 0.0032,0.00303 ± 0.0021,0.000664 ± 0.013
UCCUGGAUGAGGUUCCAUAGUAUUUAGUUA,–,0.000492 ± 0.016,–,0.000699 ± 0.012,0.000358 ± 0.01,0.000124 ± 0.07

# Record cards (already shown).
# UCCUGGUACAGCUUGCAUAGAUAUUUCAAA is listed as pre-steady-state target cleavage rate [1, 5]: 0.000809 ± 0.011; pre-steady-state target cleavage rate [2, 5]: 0.000213 ± 0.023; pre-steady-state target cleavage rate [3, 6]: 0.000749 ± 0.0066; pre-steady-state target cleavage rate [3, 7]: 0.000339 ± 0.028
# UCCUGGAUGAGCUUGCAUAGUAUUAUCUUA is listed as pre-steady-state target cleavage rate [1, 5]: 0.000586 ± 0.011; pre-steady-state target cleavage rate [2, 5]: 0.00246 ± 0.0037; pre-steady-state target cleavage rate [3, 6]: 0.000951 ± 0.0049; pre-steady-state target cleavage rate [3, 7]: 0.000546 ± 0.015
